Measurements reported in patent US20250332108A1 (Veradermics, Incorporated, priority 2024, published 2025).
For at least one compound, name, drawing or mass did not settle the structure.

Test system: person with androgenetic alopecia
Assay: Case studies: oral minoxidil in males with androgenetic alopecia (blood pressure, heart rate, hair growth)

Nc1cc(N2CCCCC2)nc(N)[n+]1[O-] [Minoxidil]
Improvement in androgenetic alopecia (patient reported) (0.625 mg four times a day): improvement in their androgenetic alopecia with the subjective improvement in hair thickness and hair density | Improvement in androgenetic alopecia (patient reported) (1.25 mg QID): improvement in their androgenetic alopecia with subjective improvement in hair thickness and hair density at the frontal scalp and crown of the scalp
